Data published in paper PMC5472185.
These are yes or no findings as the source states them, for the method shown. Binding seen in cells or lysates may run through a third protein. Here binding means that the protein was enriched with, or labelled near, the bait; the list need not be complete. A no says only that the protein was not detected with the bait. Values belong to the molecule of their own block, whether it stands above or below them.

The chains behind the UniProt entries cited, without tags or fusion partners. Where a name states a change or a piece, a line headed by the entry shows the natural chain unless it says otherwise.
UniProt Q8IKK0: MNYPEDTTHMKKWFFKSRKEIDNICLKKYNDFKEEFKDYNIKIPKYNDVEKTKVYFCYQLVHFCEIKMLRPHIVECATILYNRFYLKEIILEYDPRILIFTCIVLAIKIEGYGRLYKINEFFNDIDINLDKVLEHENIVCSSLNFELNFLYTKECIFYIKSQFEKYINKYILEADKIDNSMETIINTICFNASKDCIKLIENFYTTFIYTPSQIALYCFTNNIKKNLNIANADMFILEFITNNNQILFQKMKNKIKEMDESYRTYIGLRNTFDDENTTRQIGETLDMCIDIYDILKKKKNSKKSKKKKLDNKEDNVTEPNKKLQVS
UniProt P61075: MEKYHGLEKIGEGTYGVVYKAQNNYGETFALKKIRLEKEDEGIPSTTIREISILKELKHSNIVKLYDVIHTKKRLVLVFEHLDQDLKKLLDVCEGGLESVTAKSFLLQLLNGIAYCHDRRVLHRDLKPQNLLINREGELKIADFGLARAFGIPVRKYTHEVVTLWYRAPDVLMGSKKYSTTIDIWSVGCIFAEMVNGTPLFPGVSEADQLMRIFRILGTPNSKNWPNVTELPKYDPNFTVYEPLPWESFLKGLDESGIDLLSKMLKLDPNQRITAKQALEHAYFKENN

Target: PfCyc1-smHA (full-length P. falciparum Cyc1 fused to spaghetti monster HA) (Plasmodium falciparum) (UniProt Q8IKK0)
Assay: affinity purification with mass spectrometry; schizonts 36 to 48 h postinfection lysed in 0.5% Triton X-100 in PBS, diluted 1:2 into TBST, immunoprecipitated with anti-HA magnetic beads at room temperature for 30 min; whole lane by LC/MS/MS; biological duplicates; smHA alone as control

binding: no binding
Molecule: PfPK5 (from UniProt P61075 1-288)

binding: binds
B1: PfMRK (protein, UniProt P90584 1-324)
chain: MENNSTERYIFKPNFLGEGSYGKVYKAYDTILKKEVAIKKMKLNEISNYIDDCGINFVLLREIKIMKEIKHKNIMSALDLYCEKDYINLVMEIMDYDLSKIINRKIFLTDSQKKCILLQILNGLNVLHKYYFMHRDLSPANIFINKKGEVKLADFGLCTKYGYDMYSDKLFRDKYKKNLNLTSKVVTLWYRAPELLLGSNKYNSSIDMWSFGCIFAELLLQKALFPGENEIDQLGKIFFLLGTPNENNWPEALCLPLYTEFTKATKKDFKTYFKIDDDDCIDLLTSFLKLNAHERISAEDAMKHRYFFNDPLPCDISQLPFNDL
